Experimental data taken from article PMC5167132.
These are yes or no findings as the source states them, for the method shown. Binding seen in cells or lysates may run through a third protein. Some binding calls cover weakened binding; strength is not graded here.

Chains of the proteins cited; added tags and fusions are not shown. Lines headed by an entry give the natural chain unless they say otherwise; changes in a name come on top.
UniProt Q99720: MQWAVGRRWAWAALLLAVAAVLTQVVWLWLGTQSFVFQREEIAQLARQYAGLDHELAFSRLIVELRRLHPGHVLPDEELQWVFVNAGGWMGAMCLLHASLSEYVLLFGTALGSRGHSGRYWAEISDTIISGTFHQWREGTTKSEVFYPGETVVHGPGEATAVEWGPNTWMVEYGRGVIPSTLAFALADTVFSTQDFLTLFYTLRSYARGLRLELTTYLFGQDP
UniProt Q14573: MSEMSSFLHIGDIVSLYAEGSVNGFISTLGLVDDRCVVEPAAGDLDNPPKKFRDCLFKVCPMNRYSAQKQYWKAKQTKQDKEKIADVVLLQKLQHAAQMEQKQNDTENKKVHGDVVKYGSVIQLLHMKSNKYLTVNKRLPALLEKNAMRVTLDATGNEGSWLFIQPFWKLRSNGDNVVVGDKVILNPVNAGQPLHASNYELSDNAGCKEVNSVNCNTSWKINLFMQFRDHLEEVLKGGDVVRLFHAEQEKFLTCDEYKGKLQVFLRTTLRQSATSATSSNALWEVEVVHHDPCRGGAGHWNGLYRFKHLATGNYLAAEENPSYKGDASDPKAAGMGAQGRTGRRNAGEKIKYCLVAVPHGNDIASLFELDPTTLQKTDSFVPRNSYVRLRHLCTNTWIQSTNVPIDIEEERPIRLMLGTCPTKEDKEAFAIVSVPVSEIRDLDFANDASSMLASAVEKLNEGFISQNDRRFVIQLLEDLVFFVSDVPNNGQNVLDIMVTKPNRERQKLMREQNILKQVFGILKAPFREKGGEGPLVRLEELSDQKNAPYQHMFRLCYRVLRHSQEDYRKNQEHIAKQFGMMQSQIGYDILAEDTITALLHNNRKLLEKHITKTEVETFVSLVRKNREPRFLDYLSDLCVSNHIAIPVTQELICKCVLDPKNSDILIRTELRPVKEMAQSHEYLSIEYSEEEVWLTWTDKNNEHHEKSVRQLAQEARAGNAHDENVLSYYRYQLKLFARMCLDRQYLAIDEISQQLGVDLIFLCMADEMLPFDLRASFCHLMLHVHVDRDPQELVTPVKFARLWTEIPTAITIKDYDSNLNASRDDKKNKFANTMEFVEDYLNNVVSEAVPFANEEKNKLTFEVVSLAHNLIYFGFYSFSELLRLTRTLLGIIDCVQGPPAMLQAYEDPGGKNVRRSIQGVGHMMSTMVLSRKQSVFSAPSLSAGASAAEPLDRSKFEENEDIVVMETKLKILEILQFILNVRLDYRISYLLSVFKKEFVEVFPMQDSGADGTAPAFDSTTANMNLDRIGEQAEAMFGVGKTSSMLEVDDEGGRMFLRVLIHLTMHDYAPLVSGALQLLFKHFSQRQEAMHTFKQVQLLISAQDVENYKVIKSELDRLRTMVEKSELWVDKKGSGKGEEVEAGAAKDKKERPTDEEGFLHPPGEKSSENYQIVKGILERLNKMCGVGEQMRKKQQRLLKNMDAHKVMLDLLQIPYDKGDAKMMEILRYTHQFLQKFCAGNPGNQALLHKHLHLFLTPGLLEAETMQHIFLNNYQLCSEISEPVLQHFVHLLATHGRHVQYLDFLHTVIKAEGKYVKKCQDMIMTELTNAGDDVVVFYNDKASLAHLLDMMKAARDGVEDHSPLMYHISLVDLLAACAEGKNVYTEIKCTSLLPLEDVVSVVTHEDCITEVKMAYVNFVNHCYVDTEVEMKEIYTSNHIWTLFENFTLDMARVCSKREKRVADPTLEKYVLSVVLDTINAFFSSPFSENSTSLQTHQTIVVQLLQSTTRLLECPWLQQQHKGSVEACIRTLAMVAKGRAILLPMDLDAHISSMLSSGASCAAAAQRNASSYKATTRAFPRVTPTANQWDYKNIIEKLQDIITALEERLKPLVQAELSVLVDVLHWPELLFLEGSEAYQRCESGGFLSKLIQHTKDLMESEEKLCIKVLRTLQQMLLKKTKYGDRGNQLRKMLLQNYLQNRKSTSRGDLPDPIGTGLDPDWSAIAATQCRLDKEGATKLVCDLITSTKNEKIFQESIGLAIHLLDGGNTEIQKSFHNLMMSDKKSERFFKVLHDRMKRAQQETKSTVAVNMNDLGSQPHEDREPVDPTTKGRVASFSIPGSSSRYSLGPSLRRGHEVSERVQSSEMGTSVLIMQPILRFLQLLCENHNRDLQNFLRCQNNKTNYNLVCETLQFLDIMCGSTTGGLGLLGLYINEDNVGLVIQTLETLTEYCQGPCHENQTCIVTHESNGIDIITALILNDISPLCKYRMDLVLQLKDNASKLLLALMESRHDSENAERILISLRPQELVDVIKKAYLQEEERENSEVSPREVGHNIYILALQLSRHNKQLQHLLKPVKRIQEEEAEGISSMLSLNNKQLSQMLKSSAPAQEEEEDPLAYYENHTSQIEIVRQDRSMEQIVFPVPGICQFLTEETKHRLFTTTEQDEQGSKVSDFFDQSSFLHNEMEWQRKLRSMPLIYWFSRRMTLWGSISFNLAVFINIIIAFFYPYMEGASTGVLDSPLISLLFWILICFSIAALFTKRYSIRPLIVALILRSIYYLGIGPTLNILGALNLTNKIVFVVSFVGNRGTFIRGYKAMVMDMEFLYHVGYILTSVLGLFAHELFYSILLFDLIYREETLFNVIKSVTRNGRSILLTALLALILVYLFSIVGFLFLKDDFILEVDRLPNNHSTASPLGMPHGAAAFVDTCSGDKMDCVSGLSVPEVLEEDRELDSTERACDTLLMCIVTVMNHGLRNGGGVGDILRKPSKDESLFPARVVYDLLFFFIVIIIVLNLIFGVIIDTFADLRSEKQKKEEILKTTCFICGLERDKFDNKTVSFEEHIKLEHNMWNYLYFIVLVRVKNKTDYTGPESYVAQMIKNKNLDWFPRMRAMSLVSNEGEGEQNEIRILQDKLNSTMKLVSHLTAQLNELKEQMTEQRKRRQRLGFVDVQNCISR

How the values were obtained:
[1] = target: sigma 1 receptor (Sig1R), wild type, FLAG tagged (UniProt Q99720); test: co-IP; Sig1R-FLAG variants transfected in N2a-IP3R3 cells; lysis in 50 mM Tris-HCl (pH 8.0), 150 mM NaCl, 1% CHAPS; anti-FLAG M2 overnight at 4°C, protein G Sepharose; eluted with FLAG peptide; immunoblotting for IP3R3
[2] = target: sigma 1 receptor (Sig1R) E102Q, ALS-linked variant, FLAG tagged (UniProt Q99720); test: as above

human inositol 1,4,5-triphosphate receptor type 3 (IP3R3), C-terminal HA tag (from UniProt Q14573 1-2671)
binding [1]: binds | binding [2]: no binding
